Consider one substance from US20110098492A1, “CLEANING COMPOSITIONS CONTAINING MID-RANGE ALKOXYLATES” (priority 2008, published 2011).

The test system of this data set is microorganisms derived from activated sludge. Description: OECD 301 F biodegradation (manometric respirometry). As to conditions: aerobic.

Regarding C9(BO)1(EO)7 [Example 9], the “OECD 301F Biodegradation, %” value came out at 73%.
